Source: PubChem BioAssay AID1224830 (NIAID, 2016)
Assay: 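Host factors that control LPS-induced TNF expression in human macrophages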 (primary screen). Cells: human THP-1 monocytic leukaemia cells, TNF dual-luciferase reporter clone, PMA-differentiated to macrophage-like cells. Knock-down reagent: siRNA pool against human genes, 50 nM. Timing: LPS for 4 h, given about 3 days after siRNA transfection. Challenge: bacterial LPS (TLR4 ligand), 10 ng/ml. Read-out: 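TNF firefly reporter luminescence divided by renilla, normalised to the plate median, then turned into a robust z-score for each replicate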. Scale: TNF reporter robust z-score: higher = stronger TNF reporter response to LPS. Active means: 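a well is active when its z-score exceeds 2.8 or falls below -1.5; control wells carry no call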.
This is a random part of about 18,000 deposited reagents. About 2,900 of them (16%) count as active. 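Calls are made per well; low scores hint the gene aids the LPS response, high scores that it dampens it.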 Unmarked entries are inactive. Repeated entries: four replicate wells of each siRNA pool. No sequences are given here.

DNAJB6 (DnaJ heat shock protein family (Hsp40) member B6)
- TNF reporter robust z-score: -1.6 (active)

DNAJB6 (DnaJ heat shock protein family (Hsp40) member B6)
- TNF reporter robust z-score: -1.02

DNAJB6 (DnaJ heat shock protein family (Hsp40) member B6)
- TNF reporter robust z-score: -1.18

DNAJB6 (DnaJ heat shock protein family (Hsp40) member B6)
- TNF reporter robust z-score: -0.53

ZC3H14 (zinc finger CCCH-type containing 14)
- TNF reporter robust z-score: -0.56

ZC3H14 (zinc finger CCCH-type containing 14)
- TNF reporter robust z-score: -0.17

ZC3H14 (zinc finger CCCH-type containing 14)
- TNF reporter robust z-score: -0.85

ZC3H14 (zinc finger CCCH-type containing 14)
- TNF reporter robust z-score: -0.92

SPATA8 (spermatogenesis associated 8)
- TNF reporter robust z-score: 0.93

SPATA8 (spermatogenesis associated 8)
- TNF reporter robust z-score: 2.87 (active)

SPATA8 (spermatogenesis associated 8)
- TNF reporter robust z-score: 1.88

SPATA8 (spermatogenesis associated 8)
- TNF reporter robust z-score: 0.89

ZNF462 (zinc finger protein 462)
- TNF reporter robust z-score: -0.85

ZNF462 (zinc finger protein 462)
- TNF reporter robust z-score: -1.13

ZNF462 (zinc finger protein 462)
- TNF reporter robust z-score: -1.63 (active)

ZNF462 (zinc finger protein 462)
- TNF reporter robust z-score: -1.2

PRKD1 (protein kinase D1)
- TNF reporter robust z-score: -1.7 (active)

PRKD1 (protein kinase D1)
- TNF reporter robust z-score: -0.07

PRKD1 (protein kinase D1)
- TNF reporter robust z-score: -0.27

PRKD1 (protein kinase D1)
- TNF reporter robust z-score: -0.66

ADAM8 (ADAM metallopeptidase domain 8)
- TNF reporter robust z-score: 1.24

ADAM8 (ADAM metallopeptidase domain 8)
- TNF reporter robust z-score: -0.2

ADAM8 (ADAM metallopeptidase domain 8)
- TNF reporter robust z-score: -0.41

ADAM8 (ADAM metallopeptidase domain 8)
- TNF reporter robust z-score: 0.5

CCL4L1 (C-C motif chemokine ligand 4 like 1)
- TNF reporter robust z-score: 0.99

CCL4L1 (C-C motif chemokine ligand 4 like 1)
- TNF reporter robust z-score: 0.67

CCL4L1 (C-C motif chemokine ligand 4 like 1)
- TNF reporter robust z-score: 0.26

CCL4L1 (C-C motif chemokine ligand 4 like 1)
- TNF reporter robust z-score: 0.56

LPP
- TNF reporter robust z-score: -0.49

LPP
- TNF reporter robust z-score: -0.71

LPP
- TNF reporter robust z-score: 0.03

LPP
- TNF reporter robust z-score: -0.33

Reformatted: 6 of the entries above
Target gene	TNF reporter robust z-score
ZNF462 (zinc finger protein 462)	-0.85
ZNF462 (zinc finger protein 462)	-1.13
ZNF462 (zinc finger protein 462)	-1.63 (active)
ZNF462 (zinc finger protein 462)	-1.2
PRKD1 (protein kinase D1)	-1.7 (active)
PRKD1 (protein kinase D1)	-0.07

More records follow.
KNOP1 (lysine rich nucleolar protein 1)
- TNF reporter robust z-score: 0.35

KNOP1 (lysine rich nucleolar protein 1)
- TNF reporter robust z-score: 0.29

KNOP1 (lysine rich nucleolar protein 1)
- TNF reporter robust z-score: 0.37

KNOP1 (lysine rich nucleolar protein 1)
- TNF reporter robust z-score: -0.33

ANO4 (anoctamin 4)
- TNF reporter robust z-score: 1.18

ANO4 (anoctamin 4)
- TNF reporter robust z-score: 1.16

ANO4 (anoctamin 4)
- TNF reporter robust z-score: -1.12

ANO4 (anoctamin 4)
- TNF reporter robust z-score: -0.81

KRT28 (keratin 28)
- TNF reporter robust z-score: 0.64

KRT28 (keratin 28)
- TNF reporter robust z-score: 0.06

KRT28 (keratin 28)
- TNF reporter robust z-score: -0.2

KRT28 (keratin 28)
- TNF reporter robust z-score: -0.59

GTF2I (general transcription factor IIi)
- TNF reporter robust z-score: -0.32

GTF2I (general transcription factor IIi)
- TNF reporter robust z-score: 0.45

GTF2I (general transcription factor IIi)
- TNF reporter robust z-score: -0.16

GTF2I (general transcription factor IIi)
- TNF reporter robust z-score: -1.27
